Assay results published in the supplement of paper PMC12889115.
The list shows a part of the results. Values are raw readings; no control value is given beside them.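 In the initial screen, polymyxin B was used at a concentration that permeabilizes Salmonella's outer membrane but not its inner membrane. Maximum growth was set by DMSO wells with or without polymyxin B. Since plates varied, data were ranked per plate, and compounds giving the lowest OD600 advanced as hits.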

Tested on: Salmonella enterica serovar Typhimurium SL1344
Assay: bacterial growth OD600 after 18 h with compound and polymyxin B; higher = more bacterial growth (less inhibition)
Settings: 50 µM, Mueller-Hinton broth

| SMILES | bacterial growth OD600 (polymyxin B 1 µg/mL) | bacterial growth OD600 (polymyxin B 0.75 µg/mL) |
| --- | --- | --- |
| CCOc1ccccc1CN1CCC(Oc2cc(OC)ccc2C(=O)NCCOC)CC1 | 1.22 |  |
| COC(=O)CCCC(=O)N1CCc2[nH]nc(-c3ccc4c(c3)OCO4)c2C1 |  | 0.901 |
| Cn1nccc1C(=O)N1CCC(C2CCN(Cc3ccc(Cl)cc3)C2)CC1 (stereo not drawn) | 1.01 |  |
| Cc1nc(C)c(C(=O)NCc2cccnc2N(C)Cc2ccccc2)s1 | 0.772 |  |
| OCC1CCCCN1Cc1ccc2c(c1)CN(Cc1cccc3cccnc13)CCO2 (stereo not drawn) |  | 0.91 |
| C=CCS(=O)(=O)N1CCCC(CCc2ccccc2F)C1 (stereo not drawn) |  | 0.002 |
| COC(=O)c1cc(CNC(=O)c2ccccc2OC)cc(NC(=O)c2ccco2)c1 |  | 0.871 |
| Cc1n[nH]c(SCCNC(=O)c2csc3nc(-c4ccccc4)cn23)n1 |  | 0.767 |
| COC(=O)CCC(=O)N1CCCC(N2CCN(Cc3ccc4c(c3)OCO4)CC2)C1 (stereo not drawn) | 1 |  |
| CN(Cc1ccc(F)cc1)c1ccc(OCC(=O)N2CCc3nc[nH]c3C2c2ccccn2)nn1 (stereo not drawn) |  | 0.887 |
| COc1ccc(C(CC(=O)NCc2cccnc2)c2ccccc2)cc1 (stereo not drawn) | 0.813 |  |
| COc1cccc(-c2cn3c(C(=O)N4CCC[C@H]4C(N)=O)csc3n2)c1 | 0.915 |  |
| Cc1cccc(NC(=O)CCC2CCN(C(=O)CCOc3ccccc3)CC2)c1 | 0.638 |  |
| Cc1ncoc1C(=O)N1CCCCC1C(=O)Nc1ccc(Oc2ccccc2F)cc1 (stereo not drawn) | 0.749 |  |
| COc1cc(CC2(CCC(=O)N(C)Cc3ccc4nsnc4c3)CCC(=O)N2)ccc1F (stereo not drawn) |  | 0.798 |
| COc1ccc(NC2CCCN(C(=O)c3cccc(C(F)(F)F)c3)C2)cc1OC (stereo not drawn) | 1.03 |  |
| COc1cccc(-c2ccc(NC(=O)C3CCCN(Cc4nccs4)C3)cc2)c1 (stereo not drawn) | 0.876 |  |

Reprinted at random: 2 records from the list

| SMILES | bacterial growth OD600 (polymyxin B 1 µg/mL) | bacterial growth OD600 (polymyxin B 0.75 µg/mL) |
| --- | --- | --- |
| Cc1nc(C)c(C(=O)NCc2cccnc2N(C)Cc2ccccc2)s1 | 0.772 |  |
| Cc1cccc(NC(=O)CCC2CCN(C(=O)CCOc3ccccc3)CC2)c1 | 0.638 |  |

(listing goes on)

| SMILES | bacterial growth OD600 (polymyxin B 1 µg/mL) | bacterial growth OD600 (polymyxin B 0.75 µg/mL) |
| --- | --- | --- |
| COc1ccc(CN2CCC(n3nccc3NC(=O)c3cccc(F)c3)CC2)c(F)c1 |  | 0.487 |
| O=C1OCCCN1CCNc1ccc(-c2nc(Cc3ccccc3)no2)cn1 |  | 0.828 |
| CC(C)c1noc(-c2ccc(N3CCN(Cc4ccccn4)CC3)nc2)n1 | 0.991 |  |
| COc1cc(F)ccc1CN1CCC(C2CCN(Cc3cccnc3)CC2)C1 (stereo not drawn) |  | 0.981 |
| O=C(CCCc1ccccc1)Nc1ccnn1C1CCN(C(=O)C2CC2)CC1 |  | 0.789 |
| COc1ccc(N2C(=O)CN(C(=O)c3nc(C)c[nH]3)CC2(C)C)cc1 |  | 0.886 |
| CCOC(=O)N1CCN(C(=O)CN2Cc3cc(Cl)ccc3OC(C)C2)CC1 (stereo not drawn) |  | 1.03 |
| O=C(c1cccnc1)N1CCCC(CCc2cccc(F)c2)C1 (stereo not drawn) |  | 0.06 |
| CCCN1CCC(NC(C)c2cnc(-c3ccncc3)nc2C)CC1 (stereo not drawn) | 0.987 |  |
| CN(Cc1cccc2cnccc12)C(=O)c1cc(COc2cccc(F)c2)[nH]n1 | 0.911 |  |
| CCOC(=O)C1(CCCc2ccccc2)CCCN(C(=O)c2cc(C)nc(N)n2)C1 (stereo not drawn) | 1.18 |  |
| CCCN(CC1CC1)C(=O)CC1(c2ccc(-c3ccccc3)cc2)CC(=O)N(C2CC2)C1=O (stereo not drawn) |  | 0.041 |
| O=C(NCC1CCCN(C(=O)c2cccc3nccnc23)C1)c1ccccc1Cl (stereo not drawn) | 0.891 |  |
| COc1ccccc1NC(=O)Nc1ccnn1C1CCN(Cc2ccccn2)CC1 |  | 0.819 |
| Cc1nn(-c2ccc(F)cc2)c(C)c1CN1CC[C@@H](N2CCC(O)CC2)[C@H](O)C1 | 1.22 |  |
| Cc1ccccc1-c1cnnc(NCC[C@@H]2C[C@@H]3C=C[C@H]2C3)n1 |  | 0.4 |
